Structures can show the parent of a compound that is named as a salt. ± gives the standard deviation of the averaged measurements. This is one part of the list. Most values come without repeats; read them as rough.
Tested on: RAW 264.7
Test: HMGB1-induced TNF-alpha production relative to HMGB1-stimulated control; higher = more TNF-alpha secretion (less inhibition)
Conditions: stimulus: HMGB1 5 ug/ml, 18 h
[1] = compound concentration: 1 ug/ml

Compound	HMGB1-induced TNF-alpha production (compound concentration: 3 uM) [%]	HMGB1-induced TNF-alpha production [1] [%]
CC(C)(C)C(=O)C(Oc1ccc(Cl)cc1)n1ccnc1 (stereo not given) [Climbazole]	101	
Cc1ccccc1OCC(O)CO (stereo not given) [Mephenesin]	89.2	
Cc1ccccc1OCC(O)CO (stereo not given)	83.1	
S=c1ccss1	80.9	
CC1=C(CC(=O)O)c2cc(F)ccc2/C1=C\c1ccc(S(C)(=O)=O)cc1 [Sulindac sulfone]	96.2	
NC(N)=NC(=O)c1nc(Cl)c(N2CCCCCC2)nc1N [5-(N,N-hexamethylene)amiloride]	72.4	
CS(=O)(=O)c1ccc(-c2cc(Br)sc2-c2ccc(F)cc2)cc1	92	
O=C1CN(/N=C/c2ccc([N+](=O)[O-])o2)C(=O)N1 [Nitrofurantoin]	89.8	
O=C1CN(/N=C/c2ccc([N+](=O)[O-])o2)C(=O)N1	80.7	
C[C@H](N)[C@H](O)c1cccc(O)c1 [Metaraminol bitartrate]	83.4	
C[C@H](N)[C@H](O)c1cccc(O)c1	70.9	
COc1ccc(C(=O)/C(Br)=C\C(=O)O)cc1 [Bromebric acid]	79.5	
CCN(CC)CCOC(=O)C(Cc1cccc2ccccc12)CC1CCCO1 (stereo not given) [Nafronyl oxalate]	73.1	
CCN(CC)CCOC(=O)C(Cc1cccc2ccccc12)CC1CCCO1 (stereo not given)	84.2	
CC1(C)S[C@@H]2[C@H](NC(=O)C(C(=O)O)c3ccccc3)C(=O)N2[C@H]1C(=O)O (stereo not given in full)	101	
O=C1CN(/N=C/c2ccc(-c3ccc([N+](=O)[O-])cc3)o2)C(=O)N1 [Dantrolene sodium]	92	
O=C1CN(/N=C/c2ccc(-c3ccc([N+](=O)[O-])cc3)o2)C(=O)N1	92.1	
O=C1CN(/N=C/c2ccc(-c3ccc([N+](=O)[O-])cc3)o2)C(=O)N1 [Dantrolene sodium salt]	77.7	
COc1cc(O)c2c(c1)C(=O)c1cc(C)cc(O)c1C2=O	95.4	
CC(C)[C@H]1c2ccc(F)cc2CC[C@@]1(CCN(C)CCCc1nc2ccccc2[nH]1)OC(=O)C1CC1	111	
CCOC(=O)n1ccn(C)c1=S [Carbimazole]	70.4	
CCOC(=O)n1ccn(C)c1=S	76.5	

Compound	HMGB1-induced TNF-alpha production (compound concentration: 3 uM) [%]	HMGB1-induced TNF-alpha production [1] [%]
NC(=O)NC(CC(=O)O)C(=O)O (racemic) [Ureidosuccinic acid; Carbamoyl-dl-aspartic acid]		89.1
CC1(C)S[C@@H]2[C@H](NC(=O)[C@H](C(=O)O)c3ccsc3)C(=O)N2[C@H]1C(=O)O	99.4	
CC1(C)S[C@@H]2[C@H](NC(=O)[C@H](C(=O)O)c3ccsc3)C(=O)N2[C@H]1C(=O)O [Ticarcillin sodium]	126	
CN[C@@H]1[C@@H](O)[C@@H](O[C@@H]2[C@@H](O)[C@H](O[C@H]3OC(CN)=CC[C@H]3N)[C@@H](N)C[C@H]2N)OC[C@]1(C)O [Sisomicin sulfate]	58.5	
CN[C@@H]1[C@@H](O)[C@@H](O[C@@H]2[C@@H](O)[C@H](O[C@H]3OC(CN)=CC[C@H]3N)[C@@H](N)C[C@H]2N)OC[C@]1(C)O	84.7	
Cc1cc(NS(=O)(=O)c2ccc(N)cc2)no1 [Sulfamethoxazole]	87.5	
Cc1cc(NS(=O)(=O)c2ccc(N)cc2)no1	88.4	
O=C(c1ccc2c(c1)OCCO2)N1CCCCC1	101	
Nc1cc(Cl)c(NC2=NCCN2)c(Cl)c1 [p-Aminoclonidine hydrochloride]	85.3	
C(=C\c1ccccc1)/CN1CCN(C(c2ccccc2)c2ccccc2)CC1	93.1	
NO [Hydroxylamine hydrochloride]	108	
Cc1c(-c2cnccn2)ssc1=S [Oltipraz]	67.3	
Nc1nc(Cl)nc2c1ncn2[C@@H]1O[C@H](CO)[C@@H](O)[C@H]1O [2-Chloroadenosine]	75.1	
Nc1nc(Cl)nc2c1ncn2[C@@H]1O[C@H](CO)[C@@H](O)[C@H]1O	110	
O=c1[nH]c2ccccc2n1CCCN1CCN(C(c2ccccc2)c2ccccc2)CC1 [Oxatomide]	88.3	
O=c1c(O[C@@H]2O[C@H](CO)[C@H](O)[C@H](O)[C@H]2O)c(-c2ccc(O)c(O)c2)oc2cc(O)cc(O)c12	106	
CC(=O)OCC(=O)[C@@]1(O)CCC2C3CCC4=CC(=O)C=C[C@]4(C)[C@@]3(F)[C@@H](O)C[C@@]21C (stereo not given in full)	44.6	
C[C@@H]1C[C@H]2[C@@H]3CCC4=CC(=O)C=C[C@]4(C)[C@@]3(F)[C@@H](O)C[C@]2(C)[C@@]1(O)C(=O)COP(=O)(O)O	47.9	
CCN(CC)CCNC(C(=O)OCCC(C)C)c1ccccc1 (stereo not given)	92.4	
C[C@]12CC[C@@H]3c4ccc(OC(=O)c5ccccc5)cc4CC[C@H]3[C@@H]1CC[C@@H]2O	92.5	
C[C@]12CC[C@@H]3c4ccc(OC(=O)c5ccccc5)cc4CC[C@H]3[C@@H]1CC[C@@H]2O [estradiol benzoate]		76
CN1CCN(C(c2ccccc2)c2ccccc2)CC1	65.9	

Compound	HMGB1-induced TNF-alpha production (compound concentration: 3 uM) [%]	HMGB1-induced TNF-alpha production [1] [%]
CN1CCN(C(c2ccccc2)c2ccccc2)CC1 [Cyclizine hydrochloride]	51.4	
CC[C@H](CO)Nc1nc(NCc2ccccc2)c2ncn(C(C)C)c2n1 [Roscovitine]	87.4	
OCCN(CCO)c1nc(N2CCCCC2)c2nc(N(CCO)CCO)nc(N3CCCCC3)c2n1 [Dipyridamole]	83.6 ± 18	
OCCN(CCO)c1nc(N2CCCCC2)c2nc(N(CCO)CCO)nc(N3CCCCC3)c2n1	101	
O=C(O)c1ccccc1C(=O)Nc1ccc(S(=O)(=O)Nc2nccs2)cc1	71.4	
O=C(O)c1ccccc1C(=O)Nc1ccc(S(=O)(=O)Nc2nccs2)cc1 [Phthalylsulfathiazole]	96.4	
C[N+](C)(C)CC(=O)O [Betaine hydrochloride]	53.3	
C[N+](C)(C)CC(=O)O	91.2	
N[C@@H](CS(=O)O)C(=O)O [L-Cysteinesulfinic Acid]	85.8	
NC[C@@H]1O[C@@H](O[C@H]2[C@H](O)[C@@H](O[C@H]3O[C@H](CO)[C@@H](O)[C@H](N)[C@H]3O)[C@H](N)C[C@@H]2N)[C@@H](O)[C@H](O)[C@H]1O	95.1	
NC[C@@H]1O[C@@H](O[C@H]2[C@H](O)[C@@H](O[C@H]3O[C@H](CO)[C@@H](O)[C@H](N)[C@H]3O)[C@H](N)C[C@@H]2N)[C@@H](O)[C@H](O)[C@H]1O [Kanamycin A sulfate]	89.7	
COC(=O)[C@H](NC(=O)c1cc(-c2ccccc2)nc2ccccc12)c1ccccc1	83	
N#Cc1cc2nc(O)c(O)nc2cc1[N+](=O)[O-] [CNQX disodium]	85.5	
COC(=O)C1=C(C#N)NC(C)=C(C(=O)OC(C)C)C1c1cccc([N+](=O)[O-])c1 (stereo not given) [Nilvadipine]	85.7	
C[C@@H](CN1CCC(Cc2ccccc2)CC1)[C@@H](O)c1ccc(O)cc1 [Ro 25-6981 hydrochloride]	108	
CC1CC(OC(=O)c2ccccc2O)CC(C)(C)C1 (stereo not given)	70.4	
CC1CC(OC(=O)c2ccccc2O)CC(C)(C)C1 (stereo not given) [Homosalate]	125	
C[C@H](CCC(=O)O)[C@H]1CC[C@H]2[C@@H]3[C@@H](O)C[C@@H]4C[C@H](O)CC[C@]4(C)[C@H]3CC[C@]12C	72.1	
C[C@H](CCC(=O)O)[C@H]1CC[C@H]2[C@@H]3[C@@H](O)C[C@@H]4C[C@H](O)CC[C@]4(C)[C@H]3CC[C@]12C [Urosiol]	108	
C[C@@H](O)[C@@H]1NC(=O)[C@H](CCCCN)NC(=O)[C@@H](Cc2c[nH]c3ccccc23)NC(=O)[C@H](Cc2ccccc2)NC(=O)[C@@H](NC(=O)[C@H](N)Cc2ccccc2)CSSC[C@@H](C(=O)N[C@H](CO)[C@@H](C)O)NC1=O [Octreotide]	89.8	
C#C[C@]1(O)CC[C@H]2[C@@H]3CCC4=CCCC[C@@H]4[C@H]3CC[C@@]21C [Lynestrenol]	65.4	
O=C(Nc1ccncc1)c1cc([N+](=O)[O-])ccc1Cl	113	

Compound	HMGB1-induced TNF-alpha production (compound concentration: 3 uM) [%]	HMGB1-induced TNF-alpha production [1] [%]
Cc1cc(NC(=O)Nc2ccc3c(ccn3C)c2)sn1	79.7	
O=C(CCCN1CCN(c2ccccn2)CC1)c1ccc(F)cc1 [Azaperone]	108 ± 17	
O=C(CCCN1CCN(c2ccccn2)CC1)c1ccc(F)cc1	99.9	
Cc1cn([C@@H]2O[C@H](CO)[C@@H](O)[C@H]2O)c(=O)nc1N [5-Methylcytidine]		91.7
CN1CCC(=C2c3ccccc3Sc3ccccc32)CC1 [Pimethixene maleate]	68	
CN1CCC(=C2c3ccccc3Sc3ccccc32)CC1	76.4	
Nc1c2ccccc2nc2ccccc12	52.6	
Cc1ccc(=O)n(-c2ccccc2)c1 [Pirfenidone]	117	
N[C@@H](Cc1cc(I)c(Oc2ccc(O)c(I)c2)c(I)c1)C(=O)O [LIOTHYRONINE (L- isomer) SODIUM]	89	
N[C@@H](Cc1cc(I)c(Oc2ccc(O)c(I)c2)c(I)c1)C(=O)O [Liothyronine]	116	
N[C@@H](Cc1cc(I)c(Oc2ccc(O)c(I)c2)c(I)c1)C(=O)O	90.4	
N[C@@H](Cc1cc(I)c(Oc2ccc(O)c(I)c2)c(I)c1)C(=O)O [3,3',5-Triiodo-L-thyronine]		69.6
Cc1ccc2oc(-c3ccccc3)cc(=O)c2c1 [6-Methylflavone]		59.9
CC(=O)/C=C1/C(=O)N(C)c2ccccc21 [Supercinnamaldehyde]	123	
O=C(/C=C/c1ccc(O)cc1)c1ccc(O)cc1O [Isoliquiritigenin]	101	
Cc1c(NC(=O)c2cccnc2)c(=O)n(-c2ccccc2)n1C	91.5	
Cc1c(NC(=O)c2cccnc2)c(=O)n(-c2ccccc2)n1C [Nifenazone]	73.9	
CS(=O)(=O)OCCCCOS(C)(=O)=O [Busulfan]	90.6	
CS(=O)(=O)OCCCCOS(C)(=O)=O	85.73 ± 0.27	

Copied from the listing for reference:
Compound	HMGB1-induced TNF-alpha production (compound concentration: 3 uM) [%]	HMGB1-induced TNF-alpha production [1] [%]
Cc1c(NC(=O)c2cccnc2)c(=O)n(-c2ccccc2)n1C [Nifenazone]	73.9	
CS(=O)(=O)OCCCCOS(C)(=O)=O [Busulfan]	90.6	
CS(=O)(=O)OCCCCOS(C)(=O)=O	85.73 ± 0.27	

From the supplement of paper PMC3682954
